Experimental data taken from patent publication US7538241B2, “Hsp90 family protein inhibitors” (Kyowa Hakko Kogyo Co., Ltd., priority 2003, dated 2009).
Some of these results come from one statement about several compounds together. For at least one compound, name, drawing or mass did not settle the structure.

What follows are compounds tested against T1, Human N-terminal recombinant Hsp90 protein (region of amino acids 9 to 236) (Homo sapiens, UniProt P07900) (assay: Hsp90 protein binding assay (competition with biotinylated Radicicol)). Conditions: at concentrations of at most 10 μmol/L.
T1 construct: region of amino acids 9 to 236; made in house

SMILES | inhibition of the binding of biotinylated Radicicol to the Hsp90 protein
CCc1c(O)cc(O)c(-c2cccc(O)c2)c1CC1O[C@H](COC)[C@@H](COC)O1 [Compound 307, 5-{[(4R,5R)-4,5-Bis(methoxymethyl)-1,3-dioxolan-2-yl]methyl}-6-ethyl-4-(3-hydroxyphenyl)benzene-1,3-diol] | at least 30%
CCc1c(O)cc(O)c(-c2ccccc2)c1CC(O)C(O)CO (stereo not shown) [Compound 180, 6-Ethyl-4-phenyl-5-(2,3,4-trihydroxybutyl)benzene-1,3-diol] | at least 30%
CCc1c(O)cc(O)c(-c2ccccc2)c1CCCOCC(=O)NCCO [Compound 167, 2-[3-(2-Ethyl-3,5-dihydroxy-6-phenylphenyl)propoxy]-N-(2-hydroxyethyl)acetamide] | at least 30%
CCc1c(O)cc(O)c(-c2ccccc2)c1CCc1ocnc1C(=O)NCCO [Compound 223, 5-[2-(2-Ethyl-3,5-dihydroxy-6-phenylphenyl)ethyl]-N-(2-hydroxyethyl)-1,3-oxazole-4-carboxamide] | at least 30%
CCc1c(O)cc(O)c(-c2cccc(O)c2)c1Cc1nn(CCOC)c(=O)o1 [Compound 324, 5-{[2-Ethyl-3,5-dihydroxy-6-(3-hydroxyphenyl)phenyl]methyl}-3-(2-methoxyethyl)-3H-1,3,4-oxadiazol-2-one] | at least 30%
CCc1c(O)cc(O)c(-c2cccc(OC)c2)c1CC1O[C@@H](CO)[C@H](CO)O1 [Compound 233, 5-{[(4S,5S)-4,5-Bis(hydroxymethyl)-1,3-dioxolan-2-yl]methyl}-6-ethyl-4-(3-methoxyphenyl)benzene-1,3-diol] | at least 30%
O=C(Cc1c(Br)c(O)cc(O)c1-c1ccccc1)NC1CCN(Cc2ccccc2)CC1 [Compound 18, N-(1-benzylpiperidin-4-yl)-2-(2-bromo-3,5-dihydroxy-6-phenylphenyl)acetamide] | at least 30%
COC(=O)CCc1ccc(-c2c(O)cc(O)cc2C(OC)c2ccccc2)o1 (stereo not shown) [Compound 237, Methyl 3-{5-[2,4-dihydroxy-6-(1-methoxy-1-phenylmethyl)phenyl]furan-2-yl}propanoate] | at least 30%
COC(=O)Cc1cc(O)cc(O)c1-c1ccc(Oc2ccccc2)cc1 [Compound 80, Methyl 3,5-dihydroxy-2-(4-phenoxyphenyl)phenylacetate] | at least 30%
CCc1c(O)cc(O)c(-c2ccccc2)c1CCCOCC(=O)N(C)C [Compound 160, 2-[3-(2-Ethyl-3,5-dihydroxy-6-phenylphenyl)propoxy]-N,N-dimethylacetamide] | at least 30%
CCc1c(O)cc(O)c(-c2ccccc2)c1CCOCCCO [Compound 175, 6-Ethyl-5-[2-(3-hydroxypropoxy)ethyl]-4-phenylbenzene-1,3-diol] | at least 30%
CCc1c(O)cc(O)c(-c2ccccc2)c1CCC(N)=O [Compound 212, 3-(2-Ethyl-3,5-dihydroxy-6-phenylphenyl)propanamide] | at least 30%
CCc1c(O)cc(O)c(-c2cccc(OC)c2)c1CCOCC(O)CO (stereo not shown) [Compound 189, 5-[2-(2,3-Dihydroxypropoxy)ethyl]-6-ethyl-4-(3-methoxyphenyl)benzene-1,3-diol] | at least 30%
COCCOCCc1c(C(C)=O)c(O)cc(O)c1-c1cccc(OC)c1 [Compound 137, 1-{2,4-dihydroxy-6-[2-(2-methoxyethoxy)ethyl]-5-(3-methoxyphenyl)phenyl}ethanone] | at least 30%
CCc1c(O)cc(O)c(-c2cccc(C(=O)OC)c2)c1CCOC [Compound 131, Methyl 3-[5-ethyl-2,4-dihydroxy-6-(2-methoxyethyl)phenyl]benzoate] | at least 30%
CCCN(C)C(=O)Cc1c(Br)c(O)cc(O)c1-c1ccccc1 [Compound 36, 2-(2-Bromo-3,5-dihydroxy-6-phenylphenyl)-N-methyl-N-propylacetamide] | at least 30%
COCCc1c(CC(C)C)c(O)cc(O)c1-c1ccccc1 [Compound 96, 6-Isobutyl-5-(2-methoxyethyl)-4-phenylbenzene-1,3-diol] | at least 30%
CCc1c(O)cc(O)c(-c2cccc(NC(=O)C(C)(CO)CO)c2)c1CCOCC(O)CO (stereo not shown) [Compound 207, 5-[2-(2,3-Dihydroxypropoxy)ethyl]-6-ethyl-4-{3-[2-hydroxy-1-(hydroxymethyl)-1-methylethylcarbonylamino]phenyl}benzene-1,3-diol] | at least 30%
Oc1cc(O)c(-c2ccccc2)c(C2OCCO2)c1Br [Compound 112, 6-Bromo-5-(1,3-dioxolan-2-yl)-4-phenylbenzene-1,3-diol] | at least 30%
CC(=O)c1c(O)cc(O)c(-c2ccccc2)c1CC1O[C@H](CO)[C@@H](CO)O1 [Compound 234, 1-(6-{[(4R,5R)-4,5-bis(hydroxymethyl)-1,3-dioxolan-2-yl]methyl}-2,4-dihydroxy-5-phenylphenyl)ethanone] | at least 30%
CCc1c(O)cc(O)c(-c2ccc(F)c(C)c2)c1CCOCCO [Compound 314, 6-Ethyl-4-(4-fluoro-3-methylphenyl)-5-[2-(2-hydroxyethoxy)ethyl]benzene-1,3-diol] | at least 30%
CCOc1cccc(-c2c(O)cc(O)c(C(C)=O)c2CCOC)c1 [Compound 121, 1-[2,4-Dihydroxy-5-(3-ethoxyphenyl)-6-(2-methoxyethyl)phenyl]ethanone] | at least 30%
CCc1c(O)cc(O)c(-c2ccccc2)c1CCCOCC(O)CO (stereo not shown) [Compound 148, 5-[3-(2,3-Dihydroxypropoxy)propyl]-6-ethyl-4-phenylbenzene-1,3-diol] | at least 30%
C=CCOCCCc1c(CC)c(O)cc(O)c1-c1ccccc1 [Compound 145, 5-(3-Allyloxypropyl)-6-ethyl-4-phenylbenzene-1,3-diol] | at least 30%
CC(=O)c1c(O)cc(O)c(-c2cccc(O)c2)c1CCOCCO [Compound 310, 1-{2,4-Dihydroxy-6-[2-(2-hydroxyethoxy)ethyl]-5-(3-hydroxyphenyl)phenyl}ethanone] | at least 30%
CCc1c(O)cc(O)c(-c2ccccc2)c1CCOC [Compound 83, 6-Ethyl-5-(2-methoxyethyl)-4-phenylbenzene-1,3-diol] | at least 30%
COC(=O)CCc1c(Br)c(O)cc(O)c1-c1ccccc1 [Compound 87, Methyl 3-(2-bromo-3,5-dihydroxy-6-phenylphenyl)propanoate] | at least 30%
COCOCCc1c(Br)c(O)cc(O)c1-c1ccccc1 [Compound 86, 6-Bromo-5-[2-(2-methoxymethoxy)ethyl]-4-phenylbenzene-1,3-diol] | at least 30%
